{"source": "PubChem BioAssay AID1259254 | NCATS – 2017", "assay": "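Finding genes that stop cells copying their DNA twice in one cycle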 (primary screen)", "system": "human HCT116 colorectal cancer cells", "knock-down reagent": "single siRNA against human genes", "time to read-out": "3 days", "measured": "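Nuclei stained with Hoechst and imaged; cell-cycle phase assigned by DNA content; G2 share scaled per plate, non-targeting siRNA 0%, GMNN siRNA 100%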", "reading the numbers": "G2 robust z-score: higher = more G2 cells, more excess DNA replication", "active means": "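An siRNA counts as active if its G2 robust z-score lies at least 5 MADs above the screen median; here such calls match roughly 38% of GMNN control or more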", "note": "Here is a random part of about 59,000 deposited reagents. About 1,550 of them (2.6%) count as active. 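G2 share is only a proxy for re-replication; each gene was hit by three separate siRNAs, and active genes were retested.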 Reagents against one gene are numbered here. Not all columns of the deposit are shown. Not given: the amount of reagent."}
{"target gene": "MAPK8 (mitogen-activated protein kinase 8)", "reagent": 1, "G2 robust z-score": 1.64, "Call": "inactive"}
{"target gene": "MAPK8 (mitogen-activated protein kinase 8)", "reagent": 2, "G2 robust z-score": 4.61, "Call": "inactive"}
{"target gene": "MAPK8 (mitogen-activated protein kinase 8)", "reagent": 3, "G2 robust z-score": -0.447, "Call": "inactive"}
{"target gene": "RAB11FIP3 (RAB11 family interacting protein 3)", "reagent": 1, "G2 robust z-score": -0.33, "Call": "inactive"}
{"target gene": "RAB11FIP3 (RAB11 family interacting protein 3)", "reagent": 2, "G2 robust z-score": 1.41, "Call": "inactive"}
{"target gene": "RAB11FIP3 (RAB11 family interacting protein 3)", "reagent": 3, "G2 robust z-score": -0.133, "Call": "inactive"}
{"target gene": "PSORS1C1 (psoriasis susceptibility 1 candidate 1)", "reagent": 1, "G2 robust z-score": 0.416, "Call": "inactive"}
{"target gene": "PSORS1C1 (psoriasis susceptibility 1 candidate 1)", "reagent": 2, "G2 robust z-score": 0.039, "Call": "inactive"}
{"target gene": "PSORS1C1 (psoriasis susceptibility 1 candidate 1)", "reagent": 3, "G2 robust z-score": 0.411, "Call": "inactive"}
{"target gene": "CENPC (centromere protein C)", "reagent": 1, "G2 robust z-score": 0.288, "Call": "inactive"}
{"target gene": "CENPC (centromere protein C)", "reagent": 2, "G2 robust z-score": -1, "Call": "inactive"}
{"target gene": "CENPC (centromere protein C)", "reagent": 3, "G2 robust z-score": 0.31, "Call": "inactive"}
{"target gene": "ABCC4 (ATP binding cassette subfamily C member 4 (PEL blood group))", "reagent": 1, "G2 robust z-score": -1.15, "Call": "inactive"}
{"target gene": "ABCC4 (ATP binding cassette subfamily C member 4 (PEL blood group))", "reagent": 2, "G2 robust z-score": -0.967, "Call": "inactive"}
{"target gene": "ABCC4 (ATP binding cassette subfamily C member 4 (PEL blood group))", "reagent": 3, "G2 robust z-score": 4.07, "Call": "inactive"}
{"target gene": "ZNF540 (zinc finger protein 540)", "reagent": 1, "G2 robust z-score": 0.18, "Call": "inactive"}
{"target gene": "ZNF540 (zinc finger protein 540)", "reagent": 2, "G2 robust z-score": -0.518, "Call": "inactive"}
{"target gene": "ZNF540 (zinc finger protein 540)", "reagent": 3, "G2 robust z-score": 0.729, "Call": "inactive"}

A stretch from the list above, as a working copy:
{"target gene": "ABCC4 (ATP binding cassette subfamily C member 4 (PEL blood group))", "reagent": 3, "G2 robust z-score": 4.07, "Call": "inactive"}
{"target gene": "ZNF540 (zinc finger protein 540)", "reagent": 1, "G2 robust z-score": 0.18, "Call": "inactive"}
